# Out of some 300,000 compounds screened, about 5,400 (1.8%) were called active. Inconclusive results, whose numbers are uncertain, are shown with a selection of clear calls. Calls come from the whole dose curve; tested in HEK293 cells. A potency beside an inconclusive call is a rough fit, not a confirmed value.
# Assay: qHTS for inhibitors of binding or entry into cells for Marburg Virus
# Conditions: Marburg virus pseudotyped entry inhibition, cell reporter; series mostly up to 37.8 µM
# Potency is the fitted concentration of half-maximal effect.
row,SMILES,Potency
1,CCN(CC(=O)Nc1c(F)cccc1F)C(=O)CCCc1nc2ccccc2c(=O)[nH]1,"inconclusive: 17.8 µM [activator, single point]"
2,O=C(Nc1cccc(Cl)c1)ON=C1c2ccccc2-c2ccccc21,inactive
3,Cc1cccc(C)c1OCCn1nnc2ccccc21,inactive
4,COc1ccc(C(=O)CN2C(=O)c3ccccc3S2(=O)=O)cc1Br,"inconclusive: 4.47 µM [inhibitor, full curve]"
5,Cc1ccc(C(=O)N(CC(=O)Nc2ccc(Cl)c(Cl)c2)Cc2ccco2)cc1,"inconclusive: 0.316 µM [activator, partial curve, poor fit]"
6,C=CCc1cc(C=Nc2ccc(N3CCOCC3)cc2)cc(OCC)c1O,"inconclusive: 2.82 µM [activator, full curve, poor fit]"
7,Cc1ccc(C(C)C)c(OCC(=O)Nc2ccc(Cl)cn2)c1,"inconclusive: 28.2 µM [inhibitor, single point]"
8,O=C(COc1cccnc1[N+](=O)[O-])Nc1ccc2c(c1)OCO2,inactive
9,CCOc1cc(C(=O)Nc2ccccc2N2CCOCC2)ccc1OCC(=O)N1CCOCC1,inactive
10,Cc1nn(C)c(C)c1NS(=O)(=O)c1ccc(OC(F)(F)F)cc1,"inconclusive: 10 µM [inhibitor, partial curve, poor fit]"
11,Cc1ccc(NC(=O)C2CCN(S(=O)(=O)c3cccc4nonc34)CC2)cc1,"inconclusive: 6.31 µM [activator, single point]"
12,Cc1ccc(C(O)P(=O)(OC2CCCCC2)OC2CCCCC2)cc1 (stereo unspecified),"inconclusive: 23.1 µM [inhibitor, single point]"
13,O=C(Nc1ccccc1)N1CCC(c2ccccc2)C1 (stereo unspecified),inactive
14,N#Cc1c(-c2ccccc2)cc(-c2ccccc2)nc1Br,"inconclusive: 17.8 µM [activator, partial curve, poor fit]"
15,Cc1ccc(-n2nc(CO)c(C(=O)NCCCc3ccccc3)n2)cc1,inactive
16,Cc1cccc([N+](=O)[O-])c1NC(=O)CN(Cc1ccccc1)Cc1ccccc1,"inconclusive: 29.1 µM [inhibitor, single point]"
17,O=C(NCCN1CCOCC1)C(=O)NCc1ccc2c(c1)OCO2,inactive
18,CCN(CC)c1ccc(/C=C(/C#N)C(=O)NC(C)C)o1,inactive
19,O=C(/C=C/c1ccc2c(c1)OCO2)c1ccc[nH]1,"inconclusive: 2.31 µM [activator, partial curve, poor fit]"
20,CCc1ccccc1Nc1nc2cc(Cl)c(Cl)cc2nc1-n1nc(C)cc1C,inactive
21,CCOc1ccc(C(=O)c2cnc3ccc(Cl)cc3c2S(=O)(=O)c2ccc(C)cc2)cc1,"inconclusive: 35.5 µM [inhibitor, single point]"

# Single entries from above.
# For Potency, CCN(CC(=O)Nc1c(F)cccc1F)C(=O)CCCc1nc2ccccc2c(=O)[nH]1 shows inconclusive: 17.8 µM [activator, single point]
# For Potency, O=C(/C=C/c1ccc2c(c1)OCO2)c1ccc[nH]1 shows inconclusive: 2.31 µM [activator, partial curve, poor fit]
